In patent publication US20250108038A1 (priority 2023, published 2025):
A number of entries come with more than one value. They are shown here; other results are not. There may be further records. Values given together do not match, cause unknown; dose, time, organism, isomer or construct need not be as stated for each record.

Assay: Stability in human plasma
Settings: 2.0 μM, 60 min

For `Clc1ccc(C2(OCC3OCCO3)c3ccccc3C3=NCCN32)cc1` (stereo not shown) [Compound I-19], the “% Remaining” value was “about 70% and 69.4%”.
